Publication PMC6115391
No constants are given. Whether binding was seen depends on the method and setting. In cells and extracts the contact can be indirect. Some binding calls cover weakened binding; strength is not graded here.

Sequences of proteins named here, by UniProt entry; tags and fusion partners are left off. Residues count along the entry.
UniProt P05067, residues 18-770: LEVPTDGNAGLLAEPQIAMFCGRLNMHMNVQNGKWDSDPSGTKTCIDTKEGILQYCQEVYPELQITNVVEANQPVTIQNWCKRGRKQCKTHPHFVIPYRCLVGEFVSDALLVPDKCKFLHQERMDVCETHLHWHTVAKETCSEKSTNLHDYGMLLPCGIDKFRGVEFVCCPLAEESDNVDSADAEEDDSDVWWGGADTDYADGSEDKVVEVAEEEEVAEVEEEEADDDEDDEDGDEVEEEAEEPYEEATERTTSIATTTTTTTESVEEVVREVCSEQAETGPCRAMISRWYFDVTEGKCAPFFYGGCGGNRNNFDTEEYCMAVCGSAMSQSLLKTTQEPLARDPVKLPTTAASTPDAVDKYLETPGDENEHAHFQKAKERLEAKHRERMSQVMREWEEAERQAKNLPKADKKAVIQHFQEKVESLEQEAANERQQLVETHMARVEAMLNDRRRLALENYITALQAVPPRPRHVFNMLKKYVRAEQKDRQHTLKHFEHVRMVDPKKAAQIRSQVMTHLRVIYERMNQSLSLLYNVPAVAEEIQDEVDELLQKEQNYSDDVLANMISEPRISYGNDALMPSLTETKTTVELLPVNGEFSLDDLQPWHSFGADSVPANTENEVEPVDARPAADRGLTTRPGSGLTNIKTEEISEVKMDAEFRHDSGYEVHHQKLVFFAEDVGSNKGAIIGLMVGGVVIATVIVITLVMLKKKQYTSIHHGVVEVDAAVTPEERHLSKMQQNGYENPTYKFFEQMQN
UniProt P62993: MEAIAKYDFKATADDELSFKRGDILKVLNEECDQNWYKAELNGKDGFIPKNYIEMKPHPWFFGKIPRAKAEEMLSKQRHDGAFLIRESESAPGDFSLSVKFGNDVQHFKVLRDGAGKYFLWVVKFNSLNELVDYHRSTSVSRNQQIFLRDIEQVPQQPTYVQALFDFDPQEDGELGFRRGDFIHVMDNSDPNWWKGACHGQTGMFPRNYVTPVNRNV

Target: amyloid-β precursor protein (APP) (human (endogenous in iPSC-derived NSCs)) (UniProt P05067)
Assay: co-IP; endogenous proteins in lysates of human iPSC-derived NSCs (PS1+/+, PS1+/-, PS1-/-); TNE buffer (25 mM Tris-HCl pH 7.6, 150 mM NaCl, 1 mM EDTA) with 1% Triton X-100; primary antibody (anti-PI3Kp85 or anti-APP) overnight at 4 °C, Protein A/G magnetic beads; western blotting

For GRB2 (from UniProt P62993 1-217), the binding was “binds”.
